Measured data: PubChem BioAssay AID686938 (Drosophila RNAi Screening Center, 2013)
Screen: 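Looking for CRAC channel components and the factors controlling them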 (primary screen). System: Drosophila S2R+ cells. Reagents: long dsRNA against Drosophila genes, about 0.25 µg dsRNA per well, roughly 10,000 cells. Time to read-out: 5 days of knock-down before the calcium assay. Conditions: thapsigargin (SERCA pump blocker) to empty calcium stores; entry signal taken 4 min after adding it. Measured: 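Per-well fluo-4 fluorescence in two replicates, unnormalised, measured in resting cells and 4 min after store depletion by the SERCA blocker thapsigargin; ratio of the two present in few wells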. Scale: calcium entry signal: higher = stronger calcium signal after store depletion; resting calcium signal: higher = higher resting calcium signal. Units: calcium entry signal in fluorescence units; resting calcium signal in fluorescence units. Active means: 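Called when the plate z-score of the entry-to-rest ratio, mean of duplicates, falls below −3; wells with low overall dye signal (Fmax z below −2) or more than five off-targets excluded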. Meaning of the calls: active = strongly reduced calcium entry; inactive = no strong reduction.
The screen tested about 23,000 reagents; this is an unselected part of those that have a named target and a result. Of all reagents, 75 (0.33%) were called active. 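Raw plate signals without normalisation; calls rest on plate z-scores that were not deposited; ratio present for only 364 wells.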 Reagents against one gene are numbered here. A plus sign joins genes that one reagent is predicted to hit. Not stated in the record: the dose of the treatment.

CG3817 | calcium entry signal, replicate 1 = 2.58e7; calcium entry signal, replicate 2 = 2.93e7; resting calcium signal, replicate 1 = 1.30e7; resting calcium signal, replicate 2 = 1.56e7; call = inactive
CR42548 | calcium entry signal, replicate 1 = 3.27e7; calcium entry signal, replicate 2 = 2.81e7; resting calcium signal, replicate 1 = 1.56e7; resting calcium signal, replicate 2 = 1.46e7; call = inactive
BomS1 | calcium entry signal, replicate 1 = 2.70e7; calcium entry signal, replicate 2 = 2.05e7; resting calcium signal, replicate 1 = 1.33e7; resting calcium signal, replicate 2 = 8.42e6; call = inactive
bon | calcium entry signal, replicate 1 = 5.44e7; calcium entry signal, replicate 2 = 3.44e7; resting calcium signal, replicate 1 = 5.71e7; resting calcium signal, replicate 2 = 1.83e7; call = inactive
CG6236 | calcium entry signal, replicate 1 = 3.80e7; calcium entry signal, replicate 2 = 4.49e7; resting calcium signal, replicate 1 = 1.70e7; resting calcium signal, replicate 2 = 2.02e7; call = inactive
CG4752 | calcium entry signal, replicate 1 = 2.34e7; calcium entry signal, replicate 2 = 2.67e7; resting calcium signal, replicate 1 = 1.24e7; resting calcium signal, replicate 2 = 1.23e7; call = inactive
CG13055 | calcium entry signal, replicate 1 = 3.24e7; calcium entry signal, replicate 2 = 5.16e7; resting calcium signal, replicate 1 = 1.87e7; resting calcium signal, replicate 2 = 2.18e7; call = inactive
CG30287 | calcium entry signal, replicate 1 = 3.67e7; calcium entry signal, replicate 2 = 7.08e7; resting calcium signal, replicate 1 = 1.66e7; resting calcium signal, replicate 2 = 2.77e7; call = inactive
CG9822 | calcium entry signal, replicate 1 = 5.04e7; calcium entry signal, replicate 2 = 4.28e7; resting calcium signal, replicate 1 = 2.64e7; resting calcium signal, replicate 2 = 2.07e7; call = inactive
Rpn2 | calcium entry signal, replicate 1 = 1.65e7; calcium entry signal, replicate 2 = 1.59e7; resting calcium signal, replicate 1 = 1.23e7; resting calcium signal, replicate 2 = 1.08e7; call = active
CG14543 | calcium entry signal, replicate 1 = 2.56e7; calcium entry signal, replicate 2 = 2.14e7; resting calcium signal, replicate 1 = 1.45e7; resting calcium signal, replicate 2 = 1.08e7; call = inactive
CG6652 | calcium entry signal, replicate 1 = 3.17e7; calcium entry signal, replicate 2 = 4.68e7; resting calcium signal, replicate 1 = 1.43e7; resting calcium signal, replicate 2 = 2.93e7; call = inactive
CG16800 | calcium entry signal, replicate 1 = 4.49e7; calcium entry signal, replicate 2 = 3.37e7; resting calcium signal, replicate 1 = 1.90e7; resting calcium signal, replicate 2 = 1.64e7; call = inactive
Polr1F | calcium entry signal, replicate 1 = 2.79e7; resting calcium signal, replicate 1 = 1.19e7; call = active
snoRNA:Me28S-A982b + Uhg4 + snoRNA:Me28S-G3255a + 1 more | calcium entry signal, replicate 1 = 2.85e7; calcium entry signal, replicate 2 = 3.88e7; resting calcium signal, replicate 1 = 1.32e7; resting calcium signal, replicate 2 = 1.81e7; call = inactive

2 of these entries, reformatted.
gene,reagent no.,"calcium entry signal, replicate 1","calcium entry signal, replicate 2","resting calcium signal, replicate 1","resting calcium signal, replicate 2",call
CG9822,1,5.04e7,4.28e7,2.64e7,2.07e7,inactive
Rpn2,1,1.65e7,1.59e7,1.23e7,1.08e7,active

The listing continues.
Nos | calcium entry signal, replicate 1 = 5.82e7; resting calcium signal, replicate 1 = 2.58e7; call = inactive
Mctp #1 | calcium entry signal, replicate 1 = 4.46e7; calcium entry signal, replicate 2 = 5.55e7; resting calcium signal, replicate 1 = 2.02e7; resting calcium signal, replicate 2 = 2.50e7; call = inactive
Mctp #2 | calcium entry signal, replicate 1 = 3.28e7; calcium entry signal, replicate 2 = 4.26e7; resting calcium signal, replicate 1 = 1.94e7; resting calcium signal, replicate 2 = 1.80e7; call = inactive
ND-24 | calcium entry signal, replicate 1 = 4.18e7; calcium entry signal, replicate 2 = 4.43e7; resting calcium signal, replicate 1 = 1.85e7; resting calcium signal, replicate 2 = 2.01e7; call = inactive
HP1e | calcium entry signal, replicate 1 = 2.49e7; calcium entry signal, replicate 2 = 2.85e7; resting calcium signal, replicate 1 = 1.29e7; resting calcium signal, replicate 2 = 1.53e7; call = inactive
Sesn #1 | calcium entry signal, replicate 1 = 4.17e7; resting calcium signal, replicate 1 = 1.92e7; call = inactive
Sesn #2 | calcium entry signal, replicate 1 = 3.86e7; calcium entry signal, replicate 2 = 3.94e7; resting calcium signal, replicate 1 = 1.87e7; resting calcium signal, replicate 2 = 1.76e7; call = inactive
Sesn #3 | calcium entry signal, replicate 1 = 4.49e7; calcium entry signal, replicate 2 = 4.57e7; resting calcium signal, replicate 1 = 2.26e7; resting calcium signal, replicate 2 = 2.17e7; call = inactive
hh | calcium entry signal, replicate 1 = 4.28e7; calcium entry signal, replicate 2 = 6.87e7; resting calcium signal, replicate 1 = 2.12e7; resting calcium signal, replicate 2 = 2.81e7; call = inactive
CG12268 | calcium entry signal, replicate 1 = 6.37e7; calcium entry signal, replicate 2 = 7.89e7; resting calcium signal, replicate 1 = 3.03e7; resting calcium signal, replicate 2 = 2.69e7; call = inactive
CG11417 | calcium entry signal, replicate 1 = 2.94e7; calcium entry signal, replicate 2 = 3.58e7; resting calcium signal, replicate 1 = 1.59e7; resting calcium signal, replicate 2 = 1.89e7; call = inactive
CR46300 | calcium entry signal, replicate 1 = 2.64e7; calcium entry signal, replicate 2 = 3.91e7; resting calcium signal, replicate 1 = 1.22e7; resting calcium signal, replicate 2 = 1.75e7; call = inactive
